For one molecule, binding results are on record in paper doi:10.1101/2024.12.31.630881.

Amino acid sequences for entries named in this document (tags omitted). A change or cut given only in a name is not applied to a line headed by its entry. Chains listed by the source or under a name are the forms on record and can include a tag or linker.
APOER2 intracellular domain (Arg645 to Pro700) (Q14114, form named): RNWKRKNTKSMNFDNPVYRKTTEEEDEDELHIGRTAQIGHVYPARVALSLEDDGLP

This experiment addresses APOER2 intracellular domain (Arg645 to Pro700) (UniProt Q14114). As to the kind of experiment: two-hybrid.

Results are given in words; binding and its absence hold for the method and conditions named. Some binding calls cover weakened binding; strength is not graded here.

B1: SNX31 (protein, UniProt Q8N9S9-1 1-440)
chain: MKMHFCIPVSQQRSDALGGRYVLYSVHLDGFLFCRVRYSQLHGWNEQLRRVFGNCLPPFPPKYYLAMTTAMADERRDQLEQYLQNVTMDPNVLRSDVFVEFLKLAQLNTFDIATKKAYLDIFLPNEQSIRIEIITSDTAERVLEVVSHKIGLCRELLGYFGLFLIRFGKEGKLSVVKKLADFELPYVSLGSSEVENCKVGLRKWYMAPSLDSVLMDCRVAVDLLYMQAIQDIEKGWAKPTQAQRQKLEAFQKEDSQTKFLELAREVRHYGYLQLDPCTCDYPESGSGAVLSVGNNEISCCITLPDSQTQDIVFQMSRVKCWQVTFLGTLLDTDGPQRTLNQNLELRFQYSEDSCWQWFVIYTKQAFLLSSCLKKMISEKMVKLAAENTEMQIEVPEQSKSKKYHIQQSQQKDYSSFLSRKSKIKIAKDDCVFGNIKEEDL
In the case of B1, the binding result was “binds”.
